Test results from publication PMC9975675.

Molecular target: T1, GST-IRF1-N(aa 1-163) (UniProt P10914)
T1 sequence: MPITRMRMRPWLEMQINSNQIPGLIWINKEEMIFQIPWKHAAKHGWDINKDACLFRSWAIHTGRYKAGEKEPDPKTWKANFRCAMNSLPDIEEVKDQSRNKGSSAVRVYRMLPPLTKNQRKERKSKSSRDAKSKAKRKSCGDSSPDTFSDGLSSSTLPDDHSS
Experiment: pull-down; GST-IRF1 fusion proteins on glutathione-conjugated beads, with MUC1-CD (GST removed by thrombin); 2 h at room temperature; adsorbates detected by immunoblotting; both purified

Which binding does the source give for “MUC1-CD (MUC1-C cytoplasmic 72 aa domain, GST removed) (domain or fragment)” here?
Its binding is “binds”.

No constants are given. Whether binding was seen depends on the method and setting. A result given as binding can be weak or reduced; the word gives no strength. Tags and fused reporters may be left off the sequences shown.
